Data published in the supplement of paper PMC10849652.
This is one part of the list.

Protein sequences, listed by entry. Tags and fused reporters are not part of them. Lines headed by an entry give the natural chain unless they say otherwise; changes in a name come on top.
UniProt Q86V87: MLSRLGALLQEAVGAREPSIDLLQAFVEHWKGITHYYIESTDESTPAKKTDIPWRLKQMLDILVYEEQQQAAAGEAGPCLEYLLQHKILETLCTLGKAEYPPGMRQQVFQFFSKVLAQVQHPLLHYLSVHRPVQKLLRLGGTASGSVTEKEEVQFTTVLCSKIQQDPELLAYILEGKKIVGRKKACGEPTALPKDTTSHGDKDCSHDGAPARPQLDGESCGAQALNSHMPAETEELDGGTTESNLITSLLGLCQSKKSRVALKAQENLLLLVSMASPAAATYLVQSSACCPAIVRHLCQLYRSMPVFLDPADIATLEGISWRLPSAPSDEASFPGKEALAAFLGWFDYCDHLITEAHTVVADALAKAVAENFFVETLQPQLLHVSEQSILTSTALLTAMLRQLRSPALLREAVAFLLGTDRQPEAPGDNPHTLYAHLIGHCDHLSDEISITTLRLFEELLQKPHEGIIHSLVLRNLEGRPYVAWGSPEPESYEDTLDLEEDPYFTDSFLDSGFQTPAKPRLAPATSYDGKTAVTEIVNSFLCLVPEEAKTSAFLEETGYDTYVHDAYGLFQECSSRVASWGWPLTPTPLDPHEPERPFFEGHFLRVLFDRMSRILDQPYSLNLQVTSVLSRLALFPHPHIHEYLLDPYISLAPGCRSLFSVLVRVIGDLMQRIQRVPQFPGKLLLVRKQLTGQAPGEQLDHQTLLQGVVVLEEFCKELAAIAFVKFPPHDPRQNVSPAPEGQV
UniProt Q9BYI3: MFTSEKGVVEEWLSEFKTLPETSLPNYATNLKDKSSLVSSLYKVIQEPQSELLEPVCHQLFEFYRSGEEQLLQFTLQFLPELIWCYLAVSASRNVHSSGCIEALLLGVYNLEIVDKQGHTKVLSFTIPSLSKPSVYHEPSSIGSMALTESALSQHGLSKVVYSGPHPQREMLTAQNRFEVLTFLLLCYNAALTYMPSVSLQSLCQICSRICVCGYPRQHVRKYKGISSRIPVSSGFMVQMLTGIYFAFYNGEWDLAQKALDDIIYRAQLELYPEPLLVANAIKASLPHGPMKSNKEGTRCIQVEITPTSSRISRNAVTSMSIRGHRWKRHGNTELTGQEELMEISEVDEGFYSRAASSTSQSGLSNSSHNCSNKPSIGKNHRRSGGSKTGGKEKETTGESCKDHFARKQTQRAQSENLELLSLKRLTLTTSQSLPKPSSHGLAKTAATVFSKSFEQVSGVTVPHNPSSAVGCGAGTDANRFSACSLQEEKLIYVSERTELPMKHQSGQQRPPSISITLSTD
UniProt Q14674: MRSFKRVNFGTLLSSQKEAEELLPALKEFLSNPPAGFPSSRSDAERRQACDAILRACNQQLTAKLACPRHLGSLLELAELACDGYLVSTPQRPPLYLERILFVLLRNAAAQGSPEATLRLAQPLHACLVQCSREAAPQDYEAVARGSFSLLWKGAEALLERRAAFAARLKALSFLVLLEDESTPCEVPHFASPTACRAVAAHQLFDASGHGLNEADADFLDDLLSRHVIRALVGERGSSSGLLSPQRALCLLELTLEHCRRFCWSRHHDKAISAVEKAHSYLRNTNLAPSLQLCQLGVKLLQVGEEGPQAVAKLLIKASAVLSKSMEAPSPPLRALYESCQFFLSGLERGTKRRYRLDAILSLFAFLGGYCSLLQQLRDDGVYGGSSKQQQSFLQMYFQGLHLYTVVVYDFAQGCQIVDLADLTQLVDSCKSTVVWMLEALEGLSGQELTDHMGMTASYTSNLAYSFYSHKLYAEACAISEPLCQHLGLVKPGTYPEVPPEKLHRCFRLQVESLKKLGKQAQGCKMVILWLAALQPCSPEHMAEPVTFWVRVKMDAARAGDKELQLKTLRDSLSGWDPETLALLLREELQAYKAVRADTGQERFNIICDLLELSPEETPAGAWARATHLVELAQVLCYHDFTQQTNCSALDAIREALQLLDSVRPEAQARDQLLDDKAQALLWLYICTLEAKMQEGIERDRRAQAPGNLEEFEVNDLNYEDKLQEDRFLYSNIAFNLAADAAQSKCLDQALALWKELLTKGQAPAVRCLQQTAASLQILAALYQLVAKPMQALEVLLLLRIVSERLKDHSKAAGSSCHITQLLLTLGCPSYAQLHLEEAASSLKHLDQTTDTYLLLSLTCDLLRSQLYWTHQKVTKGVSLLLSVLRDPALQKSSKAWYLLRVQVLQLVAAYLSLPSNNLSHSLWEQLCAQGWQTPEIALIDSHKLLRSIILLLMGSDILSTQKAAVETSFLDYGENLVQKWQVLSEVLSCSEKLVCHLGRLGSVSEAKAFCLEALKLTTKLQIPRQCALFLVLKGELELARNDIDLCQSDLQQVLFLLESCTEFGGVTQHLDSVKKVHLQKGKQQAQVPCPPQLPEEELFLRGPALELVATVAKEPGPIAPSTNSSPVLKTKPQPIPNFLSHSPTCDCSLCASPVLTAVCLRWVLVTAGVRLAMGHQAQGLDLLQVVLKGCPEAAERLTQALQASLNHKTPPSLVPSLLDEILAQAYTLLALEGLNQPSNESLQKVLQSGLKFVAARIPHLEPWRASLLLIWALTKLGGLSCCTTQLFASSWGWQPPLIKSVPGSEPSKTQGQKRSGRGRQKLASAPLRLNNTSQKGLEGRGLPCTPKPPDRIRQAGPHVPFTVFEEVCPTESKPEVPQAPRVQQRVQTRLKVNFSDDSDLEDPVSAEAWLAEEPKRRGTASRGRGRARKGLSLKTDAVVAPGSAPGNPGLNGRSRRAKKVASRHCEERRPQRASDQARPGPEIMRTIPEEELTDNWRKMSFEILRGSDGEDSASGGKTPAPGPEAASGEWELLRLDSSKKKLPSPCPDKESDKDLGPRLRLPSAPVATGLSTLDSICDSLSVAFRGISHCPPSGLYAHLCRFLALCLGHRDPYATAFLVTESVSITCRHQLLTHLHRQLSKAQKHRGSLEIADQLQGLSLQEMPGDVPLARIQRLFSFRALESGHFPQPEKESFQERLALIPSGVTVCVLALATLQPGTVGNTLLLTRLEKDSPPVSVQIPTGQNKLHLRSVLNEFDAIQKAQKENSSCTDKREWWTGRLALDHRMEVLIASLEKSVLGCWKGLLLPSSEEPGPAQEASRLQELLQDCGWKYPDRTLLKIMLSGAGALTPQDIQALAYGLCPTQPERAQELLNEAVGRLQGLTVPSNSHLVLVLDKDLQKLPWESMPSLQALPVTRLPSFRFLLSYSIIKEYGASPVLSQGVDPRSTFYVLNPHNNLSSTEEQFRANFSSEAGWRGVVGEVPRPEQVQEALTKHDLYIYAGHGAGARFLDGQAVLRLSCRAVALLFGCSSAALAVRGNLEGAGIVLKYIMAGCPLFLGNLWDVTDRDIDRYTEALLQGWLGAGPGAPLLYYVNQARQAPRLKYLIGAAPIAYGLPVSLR
UniProt Q9Y2C4: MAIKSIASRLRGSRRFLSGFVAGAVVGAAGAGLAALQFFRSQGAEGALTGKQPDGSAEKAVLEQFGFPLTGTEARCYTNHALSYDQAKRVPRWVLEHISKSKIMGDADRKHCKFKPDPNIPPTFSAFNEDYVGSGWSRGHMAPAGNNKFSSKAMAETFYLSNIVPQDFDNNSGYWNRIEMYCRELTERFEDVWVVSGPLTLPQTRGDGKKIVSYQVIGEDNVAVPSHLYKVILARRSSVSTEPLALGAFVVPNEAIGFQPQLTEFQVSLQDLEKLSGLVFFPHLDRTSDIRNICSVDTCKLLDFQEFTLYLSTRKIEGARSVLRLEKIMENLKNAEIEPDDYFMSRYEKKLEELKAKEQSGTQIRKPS
UniProt Q8WU58: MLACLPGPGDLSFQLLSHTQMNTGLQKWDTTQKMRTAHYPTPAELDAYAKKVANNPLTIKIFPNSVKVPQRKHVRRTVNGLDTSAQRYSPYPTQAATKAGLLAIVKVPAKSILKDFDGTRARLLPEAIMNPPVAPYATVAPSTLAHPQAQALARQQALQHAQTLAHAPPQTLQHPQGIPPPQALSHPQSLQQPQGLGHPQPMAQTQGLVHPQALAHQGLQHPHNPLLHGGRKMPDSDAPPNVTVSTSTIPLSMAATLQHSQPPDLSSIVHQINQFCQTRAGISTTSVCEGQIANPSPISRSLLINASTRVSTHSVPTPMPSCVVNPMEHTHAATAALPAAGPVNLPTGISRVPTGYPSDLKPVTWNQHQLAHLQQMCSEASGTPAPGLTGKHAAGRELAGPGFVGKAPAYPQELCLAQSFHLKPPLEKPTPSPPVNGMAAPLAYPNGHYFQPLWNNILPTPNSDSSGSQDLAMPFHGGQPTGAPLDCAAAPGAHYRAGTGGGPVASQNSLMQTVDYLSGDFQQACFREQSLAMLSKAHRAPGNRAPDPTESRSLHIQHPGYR
UniProt Q9NVH0: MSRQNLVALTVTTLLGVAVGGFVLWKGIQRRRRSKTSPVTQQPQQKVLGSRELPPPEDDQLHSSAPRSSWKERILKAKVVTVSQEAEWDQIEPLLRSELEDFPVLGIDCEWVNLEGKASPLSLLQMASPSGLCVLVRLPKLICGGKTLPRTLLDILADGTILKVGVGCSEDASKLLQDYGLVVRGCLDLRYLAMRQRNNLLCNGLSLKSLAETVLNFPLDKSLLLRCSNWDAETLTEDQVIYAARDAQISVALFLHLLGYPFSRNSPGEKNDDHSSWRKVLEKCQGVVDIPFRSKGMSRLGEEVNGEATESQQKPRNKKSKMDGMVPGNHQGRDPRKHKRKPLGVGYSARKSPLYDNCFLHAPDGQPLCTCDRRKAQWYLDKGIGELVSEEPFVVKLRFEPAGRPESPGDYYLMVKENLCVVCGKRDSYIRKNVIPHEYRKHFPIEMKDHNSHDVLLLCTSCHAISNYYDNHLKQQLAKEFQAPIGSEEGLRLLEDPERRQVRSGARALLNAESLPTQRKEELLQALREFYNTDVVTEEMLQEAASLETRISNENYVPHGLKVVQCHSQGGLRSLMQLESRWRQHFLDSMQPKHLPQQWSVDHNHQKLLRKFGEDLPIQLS
UniProt Q96DZ1: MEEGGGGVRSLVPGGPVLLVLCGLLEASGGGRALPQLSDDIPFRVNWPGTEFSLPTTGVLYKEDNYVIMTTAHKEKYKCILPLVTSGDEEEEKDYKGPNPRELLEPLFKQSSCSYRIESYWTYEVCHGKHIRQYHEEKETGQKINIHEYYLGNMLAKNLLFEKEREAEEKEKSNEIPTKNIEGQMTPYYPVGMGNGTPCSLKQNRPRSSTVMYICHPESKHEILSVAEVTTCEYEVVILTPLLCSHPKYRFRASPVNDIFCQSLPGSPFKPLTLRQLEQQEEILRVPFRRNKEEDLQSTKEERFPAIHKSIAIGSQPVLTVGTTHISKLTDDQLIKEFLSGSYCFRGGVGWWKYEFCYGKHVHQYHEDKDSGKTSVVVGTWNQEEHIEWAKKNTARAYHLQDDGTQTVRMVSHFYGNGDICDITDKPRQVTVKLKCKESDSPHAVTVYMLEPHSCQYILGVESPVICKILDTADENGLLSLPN
UniProt Q9H0Q0: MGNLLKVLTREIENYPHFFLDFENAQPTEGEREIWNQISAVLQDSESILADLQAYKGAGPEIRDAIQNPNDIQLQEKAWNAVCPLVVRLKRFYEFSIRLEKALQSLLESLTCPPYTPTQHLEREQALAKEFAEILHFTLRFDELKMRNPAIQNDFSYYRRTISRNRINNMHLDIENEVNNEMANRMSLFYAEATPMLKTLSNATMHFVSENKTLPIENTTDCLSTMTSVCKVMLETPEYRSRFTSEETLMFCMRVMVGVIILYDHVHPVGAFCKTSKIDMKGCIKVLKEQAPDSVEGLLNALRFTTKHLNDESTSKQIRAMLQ

Tests used:
Experiment in all cases: log2 fold change, soluble protein after heating vs DMSO (PISA); higher = thermal stabilisation; K562 lysate, 10 uM; active = over 0.2 and 3.5 SD of the protein, either way, in both replicates (recomputed)
erlotinib = compound: C#Cc1cccc(Nc2ncnc3cc(OCCOC)c(OCCOC)cc23)c1 [erlotinib]
How it was run: (§1)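 Quantification was by TMTpro 16plex LC-MS/MS with equalised channel sums, applied to the supernatant after 21,000xg for 90 min. Samples were crude K562 extract at 1 mg/mL protein in PBS pH 7.4 with 1 mM MgCl2, treated with 10 μM compound for 30 min, heated for 3 min across 48°C-58°C, pooled and brought to 0.5% NP-40 at 4°C. Values are log-two fold changes in thermal stability relative to solvent controls, from duplicates.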

[1] = compound: C/C(=N\NC(=O)C1=CC(=CC=C1)S(=O)(=O)N2CCOCC2)/C3=C(C=CC(=C3)Cl)O
How it was run: as §1

[2] = compound: C1=CC(=CC=C1C2=NC3=C(N2)C=C(C=C3)C(=O)N)OC4=CC=C(C=C4)Cl
How it was run: as §1

[3] = compound: C1=CC2=C(C=CC(=C2)/C=C\3/C(=O)NC(=NCC4=CC=CS4)S3)N=C1
How it was run: as §1

[4] = compound: C1=CC=C(C=C1)C2=NC(=C(N2)C3=CC=NC=C3)C4=CC(=C(C=C4)Cl)O
How it was run: as §1

[5] = compound: C1=CC=C2C(=C1)C3=NNC4=CC=CC(=C43)C2=O
How it was run: as §1

[6] = compound: C1CCN(C1)C(=O)NC2=CC=CC(=C2)NC3=NC=C(C(=N3)NCCC4=CN=CN4)Br
How it was run: as §1

[7] = compound: C1CN(CCC1(CC2=CC=C(C=C2)Cl)N)C3=NC=NC4=C3C=CN4
How it was run: as §1

IRAK-1-4 Inhibitor I = compound: C1COCCN1CCN2C3=CC=CC=C3N=C2NC(=O)C4=CC(=CC=C4)[N+](=O)[O-] [IRAK-1-4 Inhibitor I]
How it was run: as §1

ralimetinib = compound: CC(C)(C)Cn1c(N)nc2ccc(-c3[nH]c(C(C)(C)C)nc3-c3ccc(F)cc3)nc21 [ralimetinib]
How it was run: as §1

[8] = compound: CC(C)(O)CC(=O)NCCn1ccc2ncnc(Nc3ccc(Oc4cccc(C(F)(F)F)c4)c(Cl)c3)c21
How it was run: as §1

[9] = compound: CC(C)C1=C2N=C(C=C(N2N=C1)NCC3=CC=CC=C3)NCCCCCCN
How it was run: as §1

[10] = compound: CC1=C(C(CC(=O)N1)C2=CC=C(C=C2)C(F)(F)F)C(=O)NC3=C(C=C4C(=C3)C=NN4)F
How it was run: as §1

[11] = compound: CC1=C(C=C(C=C1)NC(=O)C2=CC(=CC=C2)C(C)(C)C#N)NC3=CC4=C(C=C3)N=CN(C4=O)C
How it was run: as §1

[12] = compound: CC1=C(C=C(C=C1)NC(=O)C2=CC(=CC=C2)N(C)C)NC(=O)C3=CC=C(C=C3)O
How it was run: as §1

[13] = compound: C1=CC2=NC=CN=C2C=C1/C=C/3\C(=O)NC(=O)S3
How it was run: as §1

ibrutinib = compound: C=CC(=O)N1CCC[C@@H](n2nc(-c3ccc(Oc4ccccc4)cc3)c3c(N)ncnc32)C1 [ibrutinib]
How it was run: as §1

[14] = compound: CC(=O)c1cnc2ccc(-c3cc(Cl)c(O)c(Cl)c3)nc2c1N[C@H]1CC[C@H](CN(C)C)CC1
How it was run: as §1

[15] = compound: CC1=C(C2=C(C=C1)C(=O)C3=CC=CC=C3N2CCCN)C
How it was run: as §1

[16] = compound: CC1=CC=C(C=C1)SC2=C3C=C(SC3=CN=C2)C(=O)N
How it was run: as §1

Target | log2 fold change (erlotinib) | log2 fold change [1] | log2 fold change [2] | log2 fold change [3] | log2 fold change [4] | log2 fold change [5] | log2 fold change [6] | log2 fold change [7] | log2 fold change (IRAK-1-4 Inhibitor I) | log2 fold change (ralimetinib) | log2 fold change [8] | log2 fold change [9] | log2 fold change [10] | log2 fold change [11] | log2 fold change [12] | log2 fold change [13] | log2 fold change (ibrutinib) | log2 fold change [14] | log2 fold change [15] | log2 fold change [16]
FAM160B2 (UniProt Q86V87) | inactive: 0.021 | inactive: -0.007 | inactive: -0.023 | inactive: 0.127 | inactive: -0.057 | inactive: -0.012 | inactive: -0.008 | inactive: 0.068 | inactive: -0.063 | inactive: -0.094 | inactive: 0.139 | inactive: -0.221 | inactive: 0.131 | inactive: 0 | inactive: 0.145 |  |  |  |  | 
FAM126A (UniProt Q9BYI3) | inactive: 0.017 | inactive: -0.264 | inactive: -0.047 | inactive: 0.176 | inactive: -0.018 | inactive: -0.251 |  |  | inactive: 0.082 | inactive: 0.072 | inactive: 0.006 | inactive: 0.045 | inactive: 0.182 | inactive: 0.079 | inactive: 0.029 | inactive: -0.037 | inactive: 0.038 | inactive: 0.164 | inactive: -0.067 | inactive: -0.022
ESPL1 (UniProt Q14674) | inactive: 0.147 | inactive: 0.019 | inactive: 0.074 | inactive: -0.086 | inactive: -0.011 | inactive: 0.054 | inactive: -0.025 | inactive: 0.006 | inactive: -0.028 | inactive: 0.002 | inactive: 0.01 | inactive: 0.04 | inactive: -0.005 | inactive: -0.04 | inactive: 0.076 | inactive: 0.009 | inactive: -0.076 | inactive: -0.335 | inactive: -0.036 | active: -0.371
EXOG (UniProt Q9Y2C4) | inactive: 0.03 | inactive: -0.099 | inactive: 0.174 | inactive: 0.017 | inactive: 0.039 | inactive: -0.03 | inactive: -0.121 | inactive: -0.003 | inactive: 0.067 | inactive: 0.033 | inactive: -0.142 | inactive: -0.03 | inactive: 0.046 |  | inactive: -0.077 | inactive: -0.082 | inactive: -0.146 | inactive: -0.02 | inactive: -0.02 | inactive: -0.02
FAM222B (UniProt Q8WU58) | inactive: -0.013 | inactive: -0.016 | inactive: 0.066 | inactive: 0.254 | inactive: -0.116 | inactive: -0.354 | inactive: -0.036 | inactive: 0.158 | inactive: 0.043 | inactive: -0.004 | inactive: -0.021 | inactive: 0.018 | inactive: 0.044 | inactive: -0.014 | inactive: -0.031 | inactive: 0.069 | inactive: -0.002 |  | inactive: -0.007 | 
FAM136A (UniProt Q96C01) | inactive: 0.003 | inactive: 0.039 | inactive: 0.03 | inactive: 0.018 | inactive: 0.001 | inactive: -0.022 | inactive: -0.007 | inactive: 0.063 | inactive: -0.002 | inactive: -0.003 | inactive: -0.018 | inactive: -0.015 | inactive: 0.011 | inactive: -0.032 | inactive: -0.013 | inactive: -0.009 | inactive: 0.169 | inactive: -0.014 | inactive: 0.001 | inactive: 0.011
EXD2 (UniProt Q9NVH0) | inactive: 0.189 | inactive: 0.035 | inactive: -0.125 | inactive: -0.108 | inactive: 0.042 | inactive: 0.096 |  |  | inactive: 0.036 | inactive: 0.11 | inactive: -0.185 | inactive: 0.003 |  | inactive: 0.013 | inactive: 0.084 |  |  |  | inactive: -0.023 | 
ERLEC1 (UniProt Q96DZ1) | inactive: 0.02 | inactive: 0.013 | inactive: -0.006 | inactive: 0.004 | inactive: -0.013 | inactive: -0.059 | inactive: -0.022 | inactive: 0.015 | inactive: 0.022 | inactive: 0.032 | inactive: -0.031 | inactive: -0.015 | inactive: 0.03 | inactive: 0.019 | inactive: -0.024 | inactive: 0.003 | inactive: 0.003 | inactive: 0.007 | inactive: -0.012 | inactive: -0.014
FAM49A (UniProt Q9H0Q0) | inactive: 0.046 | inactive: 0.159 | inactive: -0.041 | inactive: -0.145 | inactive: 0.133 | inactive: 0 | inactive: 0.041 | inactive: 0.087 | inactive: -0.064 | inactive: -0.069 | inactive: -0.032 | inactive: -0.05 | inactive: -0.078 | inactive: 0.04 | inactive: 0.032 | inactive: 0.069 | inactive: 0.092 | inactive: 0.089 |  | inactive: 0.079
FAM120A, A0A494C0Y9 | inactive: 0.226 |  | inactive: 0.105 |  | inactive: -0.166 |  |  |  | inactive: 0.131 | inactive: 0.053 | inactive: -0.018 | inactive: -0.043 |  |  | inactive: -0.126 |  |  |  | inactive: 0.011 | 
FAM171A2 (UniProt A8MVW0) | inactive: 0.059 |  | inactive: 0.012 |  |  |  |  |  |  |  |  | inactive: 0.329 |  |  |  |  |  |  |  | 
ERN1 (UniProt O75460) | inactive: 0.048 |  | inactive: -0.212 |  |  |  | inactive: 0.019 | inactive: -0.016 |  |  |  | inactive: 0.041 |  |  |  |  |  |  |  | 

An excerpt of these results, in markdown.

| Target | log2 fold change (erlotinib) | log2 fold change [1] | log2 fold change [2] | log2 fold change [3] | log2 fold change [4] | log2 fold change [5] | log2 fold change [6] | log2 fold change [7] | log2 fold change (IRAK-1-4 Inhibitor I) | log2 fold change (ralimetinib) | log2 fold change [8] | log2 fold change [9] | log2 fold change [10] | log2 fold change [11] | log2 fold change [12] | log2 fold change [13] | log2 fold change (ibrutinib) | log2 fold change [14] | log2 fold change [15] | log2 fold change [16] |
| --- | --- | --- | --- | --- | --- | --- | --- | --- | --- | --- | --- | --- | --- | --- | --- | --- | --- | --- | --- | --- |
| EXOG (UniProt Q9Y2C4) | inactive: 0.03 | inactive: -0.099 | inactive: 0.174 | inactive: 0.017 | inactive: 0.039 | inactive: -0.03 | inactive: -0.121 | inactive: -0.003 | inactive: 0.067 | inactive: 0.033 | inactive: -0.142 | inactive: -0.03 | inactive: 0.046 |  | inactive: -0.077 | inactive: -0.082 | inactive: -0.146 | inactive: -0.02 | inactive: -0.02 | inactive: -0.02 |
| FAM136A (UniProt Q96C01) | inactive: 0.003 | inactive: 0.039 | inactive: 0.03 | inactive: 0.018 | inactive: 0.001 | inactive: -0.022 | inactive: -0.007 | inactive: 0.063 | inactive: -0.002 | inactive: -0.003 | inactive: -0.018 | inactive: -0.015 | inactive: 0.011 | inactive: -0.032 | inactive: -0.013 | inactive: -0.009 | inactive: 0.169 | inactive: -0.014 | inactive: 0.001 | inactive: 0.011 |
| ERN1 (UniProt O75460) | inactive: 0.048 |  | inactive: -0.212 |  |  |  | inactive: 0.019 | inactive: -0.016 |  |  |  | inactive: 0.041 |  |  |  |  |  |  |  |  |
